# Reference: paper PMC7819943, “Rice protein-binding microarrays: a tool to detect cis-acting elements near promoter regions in rice”
# Sequences of proteins named here, by UniProt entry; tags and fusion partners are left off.
# UniProt Q0JBA9, entry or part of it: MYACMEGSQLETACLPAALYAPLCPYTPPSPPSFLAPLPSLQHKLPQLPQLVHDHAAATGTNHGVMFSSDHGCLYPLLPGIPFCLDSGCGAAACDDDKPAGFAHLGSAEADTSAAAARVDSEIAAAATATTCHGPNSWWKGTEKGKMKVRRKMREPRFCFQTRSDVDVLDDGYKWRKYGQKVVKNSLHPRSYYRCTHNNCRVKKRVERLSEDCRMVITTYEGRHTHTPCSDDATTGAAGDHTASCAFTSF
# This is one part of the list.
# Biological target: OsWRKY34 (Oryza sativa, UniProt Q0JBA9 1-250)
# Assay: protein-binding microarray (RPBM); PBS, 2% BSA, 51.3 ng/ul salmon testes DNA, 50 uM zinc acetate, 200 nM TF, 25 C, 1 h; high values mean tight binding
# Conditions: protein: recombinant; tags: N-terminal polyhistidine and DsRed monomer fusion (pET32a); label: CyDye5-dUTP incorporated in the synthesized complementary strand; 3' TTTTT single-stranded linker to array surface; dsDNA, one strand shown
# Procedure, shortened: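 Binding signal here means per-feature fluorescence intensity in arbitrary units. The values were read on an Axon 4000B scanner after a custom Agilent array, double-stranded by primer extension with Cy5-dUTP, was incubated with 200 nM protein at 25 °C for 1 h in PBS with 2% BSA, salmon testes DNA and 50 µM zinc acetate, then washed. The proteins were transcription factors with an N-terminal polyhistidine tag and DsRed, expressed in E. coli BL21-CodonPlus and purified on Ni–NTA.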
row,Sequence,binding signal
1,GCTGCACCTGTTGTGGTGCCATCATCTGTTCCTATGCCTTCGGAGTCACCTAGTGCAG,9390 fluorescence intensity (a.u.)
2,TACTCGTATTATGGCACCCACCTATATTATTCAAATATTTCGGAGTCACCTAGTGCAG,8750 fluorescence intensity (a.u.)
3,TCCACCCGCCGCCACGCTCGCCCTATGCTTTTCTGCCCGCCGGAGTCACCTAGTGCAG,9440 fluorescence intensity (a.u.)
4,TTTGTTATTACTAGCACCGGGCAATATTTTCTCCATTTTGCGGAGTCACCTAGTGCAG,8940 fluorescence intensity (a.u.)
5,AAGAATTCAGAGTCAAATTTCTCAGCCACCTCGCCTATATCGGAGTCACCTAGTGCAG,8660 fluorescence intensity (a.u.)
6,CATATATATTGTTGGGGAGGTTGCAAAGTGCAAAAAATTACGGAGTCACCTAGTGCAG,10500 fluorescence intensity (a.u.)
7,ACATGATGCCTCTAGCATGTTATCGCGTTACTGGTATGTTCGGAGTCACCTAGTGCAG,8570 fluorescence intensity (a.u.)
8,TTGCAAACACACACACATTCATCTCTCCCTTTTTTACCACCGGAGTCACCTAGTGCAG,9200 fluorescence intensity (a.u.)
9,CTATCTATCATCTCTTCTACTGGTAAATATCGGCACATATCGGAGTCACCTAGTGCAG,8030 fluorescence intensity (a.u.)
10,CATATACTTCATCTTTTTTTCCTTGGTATCGTCAACTCCCCGGAGTCACCTAGTGCAG,9960 fluorescence intensity (a.u.)
11,AAATTACTTCGTCCAGTTTTTAATACACGGCAGCGTCGTTCGGAGTCACCTAGTGCAG,8040 fluorescence intensity (a.u.)
12,ACAACGCATTTCCATTTCTACTCTGCCCCTGGTAAATTACCGGAGTCACCTAGTGCAG,12400 fluorescence intensity (a.u.)
13,ACAAGTATCGCAACTGTTTGACTCAGGCCACATCTCCACTCGGAGTCACCTAGTGCAG,8430 fluorescence intensity (a.u.)
14,GCTTTGGTCGGTTGGGGTGGGCTGGATGCGCCTCCGCGCTCGGAGTCACCTAGTGCAG,17800 fluorescence intensity (a.u.)
15,CAGCTATATTTTACATGTTTTGAAAAGTTGACCAAGGGACCGGAGTCACCTAGTGCAG,8160 fluorescence intensity (a.u.)
16,CGATCGATCTCTGCATGGACCTAGCATGTTGCAACTTTATCGGAGTCACCTAGTGCAG,11400 fluorescence intensity (a.u.)
17,GGGATGGATGGAGGCGGCGGTGCTGAGGTGGTGGGACTGTCGGAGTCACCTAGTGCAG,8460 fluorescence intensity (a.u.)
18,TCTTTTCAGTCAGGTTAGTATGCCTGTATCTACCTCTCGCCGGAGTCACCTAGTGCAG,10400 fluorescence intensity (a.u.)
19,GGCGTGGAGGTGGGGATCTCCTGCGGGCTGTTCCACTCCGCGGAGTCACCTAGTGCAG,8530 fluorescence intensity (a.u.)
20,GCAGCAGCTTTTGGTCACGTTGCTATCAGCTTCAATTCTCCGGAGTCACCTAGTGCAG,8580 fluorescence intensity (a.u.)
21,CTACCAAGACTACCACCATCTATCTATCATTCTATCATTCCGGAGTCACCTAGTGCAG,8530 fluorescence intensity (a.u.)
22,CTTACCTTAACTTGCATTCGGCAACTTCCATCTCTTTGCACGGAGTCACCTAGTGCAG,10300 fluorescence intensity (a.u.)
23,CATCTTATTTATGACTTTGATGCTCTTTGTGATAGATTTCCGGAGTCACCTAGTGCAG,9410 fluorescence intensity (a.u.)
24,TGAACCAGTCAACTGCCACGTCTCACTATTTTTCTCTCTCCGGAGTCACCTAGTGCAG,9190 fluorescence intensity (a.u.)
25,CCTAAGAGTAAATTGCATCTTGGGTCTGTTTTTATTACCGCGGAGTCACCTAGTGCAG,8360 fluorescence intensity (a.u.)
26,AAACTCCTATCGTAAGGGAGGGTGGGGTAGGGTACCACTACGGAGTCACCTAGTGCAG,14100 fluorescence intensity (a.u.)
27,TTGTTGTCCATGTGAAAATGGATATATATAGTATTATTGTCGGAGTCACCTAGTGCAG,8220 fluorescence intensity (a.u.)

# Copied from the list.
# In binding signal, CATATATATTGTTGGGGAGGTTGCAAAGTGCAAAAAATTACGGAGTCACCTAGTGCAG is entered as 10500 fluorescence intensity (a.u.)
# In binding signal, TCTTTTCAGTCAGGTTAGTATGCCTGTATCTACCTCTCGCCGGAGTCACCTAGTGCAG is entered as 10400 fluorescence intensity (a.u.)
# In binding signal, CATCTTATTTATGACTTTGATGCTCTTTGTGATAGATTTCCGGAGTCACCTAGTGCAG is entered as 9410 fluorescence intensity (a.u.)
# In binding signal, CTTACCTTAACTTGCATTCGGCAACTTCCATCTCTTTGCACGGAGTCACCTAGTGCAG is entered as 10300 fluorescence intensity (a.u.)

# Next part

row,Sequence,binding signal
1,GTAGTAGTAGTAACATTATTTGACCAAACCGACCGACCTACGGAGTCACCTAGTGCAG,9690 fluorescence intensity (a.u.)
2,CCGCCCCGTCCTGTTCCCCAACGCTAGCTCCCATTCCCCACGGAGTCACCTAGTGCAG,8820 fluorescence intensity (a.u.)
3,CCTTTTCCAACGACTTCTTCTTCTTCCTGCTCTACCTTCTCGGAGTCACCTAGTGCAG,9560 fluorescence intensity (a.u.)
4,GAATCCAACCAAAACTTTTCTATTGTGCGCAACTATCTATCGGAGTCACCTAGTGCAG,8120 fluorescence intensity (a.u.)
5,TTTTCCCGCCTCCGATCCACTCCCATCCACACATGCATCACGGAGTCACCTAGTGCAG,9300 fluorescence intensity (a.u.)
6,ATGTGTGGTTTTGTATCTCTTTATCTGCGCACATACATAACGGAGTCACCTAGTGCAG,8900 fluorescence intensity (a.u.)
7,TCATGTGTGCTTATTTCACCCTGGCATAACCAATTTTCTACGGAGTCACCTAGTGCAG,9110 fluorescence intensity (a.u.)
8,AAAAGATCCCAACTCGTTTTCTTTCACCCTAAGATCTTTCCGGAGTCACCTAGTGCAG,8100 fluorescence intensity (a.u.)
9,CTTATCAACACCTTACTTGCTGCCTGCCTGCCTGCCTCATCGGAGTCACCTAGTGCAG,10300 fluorescence intensity (a.u.)
10,CTTCAGCCAGCGAGTTTATATTGACTTTTGCATCTTGTGCCGGAGTCACCTAGTGCAG,10300 fluorescence intensity (a.u.)
11,CTTCGTTTTCCGTACGTACGTTTCCCGAATTGCTAAACGACGGAGTCACCTAGTGCAG,8570 fluorescence intensity (a.u.)
12,GCTAAGGGTGTGGTTGGTTGCCTGGCTCGTCCCTGGCTCGCGGAGTCACCTAGTGCAG,9660 fluorescence intensity (a.u.)
13,GGTCAGTTAGTCGGTATCCGTCACGTCTCTCGTCGCAATCCGGAGTCACCTAGTGCAG,9520 fluorescence intensity (a.u.)
14,CTGGGATGCTCATGCTCTTTGCTAGCTGCCTTTGCATTACCGGAGTCACCTAGTGCAG,9120 fluorescence intensity (a.u.)
15,TTTCTGAGAGGCATAGTTCATGTTTCCCCATATATACTTCCGGAGTCACCTAGTGCAG,8830 fluorescence intensity (a.u.)
16,GTGGTATGTTAACGAATTGGTCGATTACTAAAACTAGACTCGGAGTCACCTAGTGCAG,8030 fluorescence intensity (a.u.)
17,TTTCTTTACTGATTGGTTTGTTTTATGCGCACATTGTTACCGGAGTCACCTAGTGCAG,9380 fluorescence intensity (a.u.)
18,GACACCCGTTTCCCTGACTCGATTTTCTAGGTTTCATCCACGGAGTCACCTAGTGCAG,11800 fluorescence intensity (a.u.)
19,CTGGAAAAGAAGTTGTGTGTTGTTGGTCTACATTGCATTCCGGAGTCACCTAGTGCAG,10900 fluorescence intensity (a.u.)
20,CCGCGGATTGCGTGCCAACGTTTGACTGTCCGTCTTATATCGGAGTCACCTAGTGCAG,8520 fluorescence intensity (a.u.)
21,AGTTTACAGGAACTGTGCCATTTTCTTATGTTTATCTTCACGGAGTCACCTAGTGCAG,10300 fluorescence intensity (a.u.)
22,CCACCTTATTATCTACTTTACACATATATATATTGTGGTGCGGAGTCACCTAGTGCAG,8160 fluorescence intensity (a.u.)
23,AAGGGGCAATATGGTCCAAGGGCAGGGTCGTAAATACCTACGGAGTCACCTAGTGCAG,8190 fluorescence intensity (a.u.)
24,CTTTATATAAGGCAGGTTAGATGGGTTTTTTGGGCTTGTACGGAGTCACCTAGTGCAG,9240 fluorescence intensity (a.u.)
25,ATCCCCGCGAAGCCGCCATGAATGACGCCCACCCTTCCCACGGAGTCACCTAGTGCAG,8290 fluorescence intensity (a.u.)
26,AAATCAACCAAGTTCCATTTCATTTCTTGCATCTCCAATTCGGAGTCACCTAGTGCAG,8480 fluorescence intensity (a.u.)
27,GCTGCGAGCCTCACCGTTCTTCTCGCTTGCAACATTCTGACGGAGTCACCTAGTGCAG,14000 fluorescence intensity (a.u.)
